Laboratory results published in the supplement of paper PMC10331698.
± gives the standard deviation of the averaged measurements. Most entries show no effect beyond the scatter of the controls.

Assays:
Assay in all cases: level (log10 ratio to DMSO vehicle control); higher = higher biomarker level / cell amount than vehicle control
[1] = compound: NS(=O)(=O)C(F)(F)C(F)(F)C(F)(F)C(F)(F)C(F)(F)C(F)(F)F [Perfluorohexanesulfonamide]; conditions: 2200 nM; in DMSO
Experimental: (§1)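 BioMAP Diversity Plus panel of 12 human primary cell co-culture systems (3C, 4H, LPS, SAg, BT, BF4T, BE3C, CASM3C, HDF3CGF, KF3CT, MyoF, Mphg). Compounds were added 1 h before stimulation and left for 24 h (MyoF 48 h; BT 72 h for soluble read-outs or 6 d for IgG). Biomarkers were read by ELISA, cytotoxicity by SRB, PBMC viability and proliferation by Alamar Blue. Each well value was divided by the mean of 8 DMSO control wells on the same plate and log10 transformed; duplicate blinded samples were tested at 4 concentrations.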

[2] = compound: OCCC(F)(F)C(F)(F)C(F)(F)C(F)(F)F [4:2 Fluorotelomer alcohol]; conditions: 2200 nM; in DMSO
Experimental: as §1

Tetrafluorosuccinic acid = compound: O=C(O)C(F)(F)C(F)(F)C(=O)O [Tetrafluorosuccinic acid]; conditions: 2200 nM; in DMSO
Experimental: as §1

[3] = compound: C=C(C)C(=O)OCCC(F)(F)C(F)(F)C(F)(F)C(F)(F)C(F)(C(F)(F)F)C(F)(F)F [(Perfluoro-5-methylhexyl)ethyl 2-methylprop-2-enoate]; conditions: in DMSO
Experimental: as §1

[4] = compound: COC(=O)CCC(F)(F)C(F)(F)C(F)(F)C(F)(F)F [Methyl 2H,2H,3H,3H-perfluoroheptanoate]; conditions: 2200 nM; in DMSO
Experimental: as §1

[5] = compound: O=C(O)C(F)(F)C(F)(F)C(F)(F)C(F)(F)C(F)(F)C(F)(F)C(F)(F)C(F)(F)Cl [9-Chloro-perfluorononanoic acid]; conditions: in DMSO
Experimental: as §1

Octafluoroadipamide = compound: NC(=O)C(F)(F)C(F)(F)C(F)(F)C(F)(F)C(N)=O [Octafluoroadipamide]; conditions: 2200 nM; in DMSO
Experimental: as §1

[6] = compound: C=C(C)C(=O)OCCC(F)(F)C(F)(F)C(F)(F)C(F)(F)C(F)(F)C(F)(F)C(F)(F)C(F)(F)F [8:2 Fluorotelomer methacrylate]; conditions: in DMSO
Experimental: as §1

[7] = compound: FC(F)(F)C(F)(F)C(F)(F)C(F)(F)C(F)(F)CCI [1-Iodo-1H,1H,2H,2H-perfluoroheptane]; conditions: 2200 nM; in DMSO
Experimental: as §1

[8] = compound: O=C(O)CCC(F)(F)C(F)(F)C(F)(F)C(F)(F)C(F)(F)F [2H,2H,3H,3H-Perfluorooctanoic acid]; conditions: 2200 nM; in DMSO
Experimental: as §1

Nonafluoropentanamide = compound: NC(=O)C(F)(F)C(F)(F)C(F)(F)C(F)(F)F [Nonafluoropentanamide]; conditions: 2200 nM; in DMSO
Experimental: as §1

[9] = compound: O=S(=O)(O)CCC(F)(F)C(F)(F)C(F)(F)C(F)(F)C(F)(F)C(F)(F)F [6:2 Fluorotelomer sulfonic acid]; conditions: in DMSO
Experimental: as §1

Perfluoropinacol = compound: OC(C(F)(F)F)(C(F)(F)F)C(O)(C(F)(F)F)C(F)(F)F [Perfluoropinacol]; conditions: in DMSO
Experimental: as §1

[10] = compound: O=S(=O)(O)C(F)(F)C(F)(F)OC(F)(F)C(F)(F)F [Perfluoro(2-ethoxyethane)sulfonic acid]; conditions: 2200 nM; in DMSO
Experimental: as §1

Row | Test System | level (log10) [1] | level (log10) [2] | level (log10) (Tetrafluorosuccinic acid) | level (log10) ([3]; 740 nM) | level (log10) ([3]; 2200 nM) | level (log10) ([3]; 6700 nM) | level (log10) ([3]; 20000 nM) | level (log10) [4] | level (log10) ([5]; 2200 nM) | level (log10) ([5]; 6700 nM) | level (log10) ([5]; 20000 nM) | level (log10) (Octafluoroadipamide) | level (log10) ([6]; 740 nM) | level (log10) ([6]; 2200 nM) | level (log10) [7] | level (log10) [8] | level (log10) (Nonafluoropentanamide) | level (log10) ([9]; 2200 nM) | level (log10) ([9]; 6700 nM) | level (log10) ([9]; 20000 nM) | level (log10) ([9]; 60000 nM) | level (log10) (Perfluoropinacol; 2200 nM) | level (log10) (Perfluoropinacol; 6700 nM) | level (log10) (Perfluoropinacol; 20000 nM) | level (log10) [10]
1 | CASM3C:CD142/Tissue Factor | -0.0205 ± 0.0092 | 0.025 ± 0.025 | -0.023 ± 0.016 | -0.041 ± 0.0028 | -0.051 ± 0.017 | -0.037 ± 0.024 | -0.0265 ± 0.056 | -0.022 ± 0.016 | 0.004 ± 0.0071 | -0.017 ± 0.011 | 0.0055 ± 0.0064 | -0.029 ± 0.04 | -0.0025 ± 0.021 | -0.0255 ± 0.029 | -0.007 ± 0.017 | -0.012 ± 0.014 | -0.034 ± 0.086 | 0.009 ± 0.048 | -0.01 ± 0.013 | -0.0345 ± 0.021 | 0.007 ± 0.02 | -0.0375 ± 0.018 | -0.0515 ± 0.022 | -0.0235 ± 0.06 | 0.005 ± 0.055
2 | MyoF:PAI-I | -0.0045 ± 0.0078 | 0.0065 ± 0.012 | 0.021 ± 0.0071 | 0 ± 0.0099 | -0.011 ± 0.0057 | -0.0025 ± 0.011 | -0.019 ± 0.0085 | 0.005 ± 0.0085 | -0.001 ± 0.0085 | -0.0065 ± 0.0078 | -0.0185 ± 0.011 | -0.003 ± 0.027 | 0.006 ± 0.018 | 0.0065 ± 0.011 | -0.01 ± 0.0071 | 0.0015 ± 0.0092 | -0.0015 ± 0.012 | 0.0035 ± 0.0064 | -0.0035 ± 0.0021 | -0.011 ± 0.0014 | -0.0035 ± 0.015 | -0.0005 ± 0.0021 | -0.0215 ± 0.012 | -0.0025 ± 0.00071 | 0.003 ± 0.0071
3 | LPS:IL-1alpha | 0.0035 ± 0.05 | -0.003 ± 0.0071 | 0.0055 ± 0.019 | -0.0125 ± 0.00071 | -0.111 ± 0.0099 | -0.0515 ± 0.096 | -0.0355 ± 0.023 | 0.0355 ± 0.073 | 0.0375 ± 0.04 | 0.038 ± 0.017 | 0.025 ± 0.021 | -0.034 ± 0.02 | 0.024 ± 0.027 | 0.0785 ± 0.039 | 0.0195 ± 0.036 | 0.0205 ± 0.023 | -0.078 ± 0.0014 | 0.039 ± 0.0028 | 0.007 ± 0.011 | 0.0225 ± 0.023 | 0.037 ± 0.05 | 0.0205 ± 0.042 | 0.0305 ± 0.011 | 0.041 ± 0.0014 | 0.0245 ± 0.012
4 | BE3C:uPA | -0.0145 ± 0.044 | -0.029 ± 0.035 | -0.002 ± 0.0099 | 0.008 ± 0.02 | -0.0025 ± 0.018 | -0.001 ± 0.016 | -0.0005 ± 0.016 | -0.025 ± 0.023 | 0.001 ± 0.016 | 0.0035 ± 0.011 | -0.0125 ± 0.011 | 0.003 ± 0.024 | 0.005 ± 0.02 | -0.016 ± 0.042 | 0.002 ± 0.0014 | 0.004 ± 0.0057 | 0.0025 ± 0.012 | -0.0045 ± 0.012 | -0.008 ± 0.0099 | -0.005 ± 0.0028 | 0.01 ± 0.0057 | -0.001 ± 0.0028 | -0.0055 ± 0.005 | -0.042 ± 0.011 | 0.0065 ± 0.015
5 | HDF3CGF:SRB | -0.024 ± 0.0057 | -0.008 ± 0.027 | -0.018 ± 0.0071 | 0.002 ± 0.0099 | 0.0255 ± 0.0021 | 0.0055 ± 0.0092 | 0.008 ± 0.0028 | 0.012 ± 0.073 | 0.047 ± 0.023 | 0.081 ± 0.016 | 0.065 ± 0.033 | -0.0275 ± 0.00071 | -0.014 ± 0.054 | -0.001 ± 0.041 | 0.0075 ± 0.023 | -0.009 ± 0.025 | -0.004 ± 0.028 | 0.0065 ± 0.0021 | 0.0055 ± 0.044 | 0.0255 ± 0.056 | 0.023 ± 0.085 | -0.0065 ± 0.012 | -0.027 ± 0.0042 | -0.0055 ± 0.039 | -0.039 ± 0.038
6 | SAg:CXCL9/MIG | -0.0085 ± 0.0078 | 0.006 ± 0.013 | -0.004 ± 0.0085 | -0.002 ± 0.013 | 0.007 ± 0.0071 | 0.002 ± 0.0085 | 0.015 ± 0.0042 | -0.0125 ± 0.00071 | -0.0035 ± 0.013 | -0.001 ± 0.013 | -0.0025 ± 0.0021 | 0.0075 ± 0.019 | -0.001 ± 0.028 | -0.003 ± 0.0057 | 0.0005 ± 0.0021 | -0.0025 ± 0.015 | 0.002 ± 0.024 | 0.003 ± 0.0057 | -0.002 ± 0.018 | -0.0035 ± 0.015 | -0.0045 ± 0.012 | 0.007 ± 0.0014 | -0.002 ± 0.0028 | -0.005 ± 0.0014 | 0.0085 ± 0.0021
7 | BE3C:MMP-9 | -0.026 ± 0.0071 | 0.0015 ± 0.0092 | -0.0065 ± 0.026 | -0.022 ± 0.028 | -0.017 ± 0.011 | 0.0245 ± 0.039 | 0.022 ± 0.044 | 0.008 ± 0.011 | -0.0105 ± 0.019 | 0.001 ± 0.014 | -0.04 ± 0.014 | 0.0105 ± 0.046 | 0.0095 ± 0.047 | -0.015 ± 0.062 | -0.003 ± 0.018 | -0.0135 ± 0.023 | -0.0105 ± 0.028 | 0.004 ± 0.0014 | -0.004 ± 0.021 | -0.0045 ± 0.0078 | 0.016 ± 0.021 | 0.001 ± 0.011 | -0.011 ± 0.0014 | -0.04 ± 0.0028 | 0 ± 0.014
8 | CASM3C:CXCL8/IL-8 | -0.0175 ± 0.018 | 0.0085 ± 0.022 | -0.005 ± 0.011 | 0.0115 ± 0.019 | 0.002 ± 0.016 | 0.005 ± 0.037 | 0.019 ± 0.028 | 0.0025 ± 0.022 | -0.0155 ± 0.0064 | 0.0045 ± 0.00071 | 0.0175 ± 0.016 | -0.008 ± 0.037 | 0.0015 ± 0.018 | -0.005 ± 0.024 | 0.001 ± 0.0085 | -0.003 ± 0.028 | -0.0145 ± 0.0078 | 0.004 ± 0.0085 | 0.007 ± 0.0042 | -0.016 ± 0.011 | 0.0185 ± 0.019 | -0.0105 ± 0.0078 | 0.004 ± 0.011 | 0.029 | 0.009 ± 0.0085
9 | 3C:CXCL9/MIG | -0.0135 ± 0.0078 | 0.001 ± 0.013 | -0.0155 ± 0.0078 | 0.006 ± 0.0028 | -0.007 ± 0.013 | -0.001 ± 0.011 | 0.0045 ± 0.0035 | -0.011 ± 0.0099 | 0.007 | -0.005 ± 0.0042 | 0.0065 ± 0.0078 | -0.0015 ± 0.015 | 0.0015 ± 0.005 | -0.0005 ± 0.0078 | -0.004 ± 0.0085 | 0.0005 ± 0.0092 | 0.002 ± 0.0085 | -0.002 ± 0.014 | -0.0065 ± 0.0021 | -0.009 ± 0.017 | -0.006 ± 0.0042 | 0.0015 ± 0.0035 | -0.005 ± 0.013 | -0.014 ± 0.0085 | -0.002 ± 0.0085
10 | BT:sIL-6 | 0.0055 ± 0.025 | -0.001 ± 0.045 | -0.038 ± 0.0071 | -0.0195 ± 0.04 | -0.01 ± 0.041 | -0.0095 ± 0.025 | 0.0305 ± 0.073 | 0.0395 ± 0.022 | -0.0445 ± 0.063 | 0.0155 ± 0.022 | 0.0135 ± 0.018 | 0.051 ± 0.051 | 0.001 ± 0.028 | 0.256 ± 0.32 | -0.003 ± 0.042 | 0.0455 ± 0.023 | 0.025 ± 0.038 | 0.0565 ± 0.0078 | 0.0255 ± 0.039 | 0.0375 ± 0.016 | 0.003 ± 0.052 | -0.009 ± 0.0028 | -0.073 ± 0.051 | -0.0655 ± 0.019 | 0.064 ± 0.072

An excerpt from above, showing only level (log10) [1].

| Row | Test System | level (log10) [1] |
| --- | --- | --- |
| 3 | LPS:IL-1alpha | 0.0035 ± 0.05 |
| 9 | 3C:CXCL9/MIG | -0.0135 ± 0.0078 |
